# Most entries show no effect beyond the scatter of the controls.
# Assays:
# Test in all cases: normalised response (% of control), CellTox Green; higher = less cell death (100 = DMSO, 0 = benzethonium chloride kill control)
# Details in all cases: incubation time: 72 h
# HCC1937 = test system: HCC1937
# Protocol: (§1)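 DSRT, 72 h incubation, CellTox Green / CellTiter-Glo readout. Signal is normalised to DMSO and benzethonium chloride controls. Value is the normalised response at the lowest tested concentration.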
# CAL-120 = test system: CAL-120
# Protocol: as §1
# MDA-MB-436 = test system: MDA-MB-436
# Protocol: as §1
# DU-4475 = test system: DU-4475
# Protocol: as §1
# CAL-148 = test system: CAL-148
# Protocol: as §1
# CAL-85-1 = test system: CAL-85-1
# Protocol: as §1
# HCC1143 = test system: HCC1143
# Protocol: as §1
# CAL-51 = test system: CAL-51
# Protocol: as §1
# BT-474 = test system: BT-474
# Protocol: as §1
# BT-549 = test system: BT-549
# Protocol: as §1
# MCF-10A = test system: MCF-10A
# Protocol: as §1
# MDA-MB-453 = test system: MDA-MB-453
# Protocol: as §1
# MDA-MB-231 = test system: MDA-MB-231
# Protocol: as §1
# MFM-223 = test system: MFM-223
# Protocol: as §1
# MDA-MB-468 = test system: MDA-MB-468
# Protocol: as §1
# Hs578T = test system: Hs578T
# Protocol: as §1
# HDQ-P1 = test system: HDQ-P1
# Protocol: as §1
# HCC1599 = test system: HCC1599
# Protocol: as §1
Structure (SMILES),normalised response (HCC1937),normalised response (CAL-120),normalised response (MDA-MB-436),normalised response (DU-4475),normalised response (CAL-148),normalised response (CAL-85-1),normalised response (HCC1143),normalised response (CAL-51),normalised response (BT-474),normalised response (BT-549),normalised response (MCF-10A),normalised response (MDA-MB-453),normalised response (MDA-MB-231),normalised response (MFM-223),normalised response (MDA-MB-468),normalised response (Hs578T),normalised response (HDQ-P1),normalised response (HCC1599)
COc1cc(Nc2ncc3c(n2)-c2ccc(Cl)cc2C(c2c(F)cccc2OC)=NC3)ccc1C(=O)O [Alisertib] (1 nM),59.9%,97.7%,64.3%,95.1%,103%,94.2%,94.4%,120%,96.9%,87.7%,104%,98%,102%,93.7%,91.8%,101%,76.6%,96.4%
CC(C)c1c(C(=O)Nc2ccccc2)c(-c2ccccc2)c(-c2ccc(F)cc2)n1CC[C@@H](O)C[C@@H](O)CC(=O)O [Atorvastatin] (1 nM),103%,101%,81.5%,106%,103%,95.9%,120%,106%,100%,95.2%,102%,104%,96.8%,100%,85.9%,105%,95.9%,105%
CC(=O)OC[C@H]1O[C@@H]([S-])[C@H](OC(C)=O)[C@@H](OC(C)=O)[C@@H]1OC(C)=O.CCP(CC)CC.[Au+] [Auranofin] (0.25 nM),109%,108%,111%,117%,51.5%,103%,96%,111%,104%,110%,99.8%,107%,124%,95.5%,80.7%,82.7%,106%,127%
CNC(=O)c1ccccc1Sc1ccc2c(/C=C/c3ccccn3)n[nH]c2c1 [Axitinib] (1 nM),113%,101%,104%,104%,108%,112%,125%,101%,103%,113%,107%,116%,99.1%,103%,100%,110%,96.1%,106%
Nc1ncn([C@@H]2O[C@H](CO)[C@@H](O)[C@H]2O)c(=O)n1 [Azacitidine] (1 nM),90.3%,96.7%,95.4%,101%,77.9%,103%,120%,112%,98.7%,103%,98.6%,105%,75.9%,105%,141%,103%,81.5%,98.4%
C=CC(=O)Nc1cc2c(Nc3ccc(F)c(Cl)c3)ncnc2cc1OCCCN1CCOCC1 [Canertinib] (1 nM),88.1%,96.2%,93.5%,102%,108%,105%,98.7%,125%,106%,87.9%,93.3%,71.5%,101%,99.5%,106%,74.5%,96.1%,106%
O=NN(CCCl)C(=O)NCCCl [Carmustine] (1 nM),101%,97.5%,73.1%,98.6%,81.6%,97.8%,115%,64.6%,98.5%,79.6%,79.6%,101%,100%,96.5%,78.9%,80.9%,94.1%,99.2%
CC1(COc2ccc3c(c2)ncn3-c2ccc3cccc(N4CCC(N)CC4)c3n2)COC1 [Crenolanib] (1 nM),110%,105%,–,104%,99.3%,87.6%,121%,117%,98.9%,103%,96.4%,103%,107%,101%,75.7%,109%,96.9%,108%
C[C@]12CC[C@@H]3c4ccc(O)cc4C[C@@H](CCCCCCCCC[S+]([O-])CCCC(F)(F)C(F)(F)F)[C@H]3[C@@H]1CC[C@@H]2O (some centres undefined) [Fulvestrant] (0.1 nM),110%,101%,94.8%,103%,104%,105%,118%,122%,99.7%,80.3%,104%,104%,107%,97.1%,87.3%,90.7%,84.5%,109%
Cc1cc(Nc2cc(CN3CCOCC3)c3nc(C)c(Cc4ccc(Cl)cc4F)n3n2)n[nH]1 [Gandotinib] (1 nM),95.3%,101%,98.4%,101%,69.9%,105%,83.4%,117%,104%,98.7%,96.9%,112%,96.1%,94.2%,94.2%,77.2%,84.2%,96.9%
NC(=O)NO [Hydroxyurea] (10 nM),100%,103%,114%,105%,107%,101%,116%,103%,100%,94.2%,91.1%,104%,–,90.4%,63.4%,77.9%,102%,109%
O=C(Nc1ccncc1)C(=O)c1cn(Cc2ccc(Cl)cc2)c2ccccc12 [Indibulin] (1 nM),87.9%,98.5%,89.5%,103%,110%,106%,123%,109%,106%,103%,90.6%,114%,105%,105%,96.4%,110%,90.6%,106%
CCc1c2c(nc3ccc(OC(=O)N4CCC(N5CCCCC5)CC4)cc13)-c1cc3c(c(=O)n1C2)COC(=O)[C@]3(O)CC [Irinotecan] (1 nM),90%,93%,63.3%,98.7%,67.5%,103%,71.5%,110%,104%,101%,88.5%,101%,106%,92.9%,107%,106%,66.7%,89.3%
COc1ccccc1S(=O)(=O)Nc1ccc2c(c1)CN(C)C(=O)N2 [PFI-1] (1 nM),104%,107%,99.9%,117%,106%,107%,128%,85.5%,98%,96.3%,100%,108%,128%,101%,51.5%,91.2%,113%,128%
Cn1c(Nc2ccc(C(F)(F)F)cc2)nc2cc(Oc3ccnc(-c4ncc(C(F)(F)F)[nH]4)c3)ccc21 [RAF265] (0.1 nM),92.4%,101%,87.4%,103%,–,102%,95.5%,113%,105%,95.7%,94%,105%,113%,104%,117%,89.2%,95.7%,98.2%
O=[N+]([O-])c1ccc2c(c1)S(=O)(=O)C=C2 [Stattic] (5 nM),75.5%,103%,93.1%,107%,99.7%,106%,75.5%,96.3%,99.6%,99.6%,100%,103%,101%,97.5%,75.3%,110%,93.6%,108%
Cn1c(=O)c(F)c(Nc2ccc(I)cc2F)c2c(=O)n(C[C@@H](O)CO)cnc21 [TAK-733] (0.1 nM),89.9%,100%,88.4%,110%,103%,97.1%,110%,115%,97.1%,101%,95.4%,73.7%,121%,106%,76.8%,95.9%,101%,117%
CC/C(=C(\c1ccccc1)c1ccc(OCCN(C)C)cc1)c1ccccc1 [Tamoxifen] (1 nM),120%,104%,98.9%,107%,73.9%,92.8%,112%,119%,99.8%,92.7%,114%,106%,116%,96.4%,80.8%,59.8%,103%,111%
Nc1nc2[nH]cnc2c(=S)[nH]1 [Thioguanine] (1 nM),90%,101%,73.2%,105%,94.1%,101%,108%,62%,100%,97.1%,104%,97%,114%,102%,89.8%,88.1%,96%,109%

# 2 compounds picked at random from those above:
Structure (SMILES),normalised response (HCC1937),normalised response (CAL-120),normalised response (MDA-MB-436),normalised response (DU-4475),normalised response (CAL-148),normalised response (CAL-85-1),normalised response (HCC1143),normalised response (CAL-51),normalised response (BT-474),normalised response (BT-549),normalised response (MCF-10A),normalised response (MDA-MB-453),normalised response (MDA-MB-231),normalised response (MFM-223),normalised response (MDA-MB-468),normalised response (Hs578T),normalised response (HDQ-P1),normalised response (HCC1599)
Nc1ncn([C@@H]2O[C@H](CO)[C@@H](O)[C@H]2O)c(=O)n1 [Azacitidine] (1 nM),90.3%,96.7%,95.4%,101%,77.9%,103%,120%,112%,98.7%,103%,98.6%,105%,75.9%,105%,141%,103%,81.5%,98.4%
Cn1c(Nc2ccc(C(F)(F)F)cc2)nc2cc(Oc3ccnc(-c4ncc(C(F)(F)F)[nH]4)c3)ccc21 [RAF265] (0.1 nM),92.4%,101%,87.4%,103%,–,102%,95.5%,113%,105%,95.7%,94%,105%,113%,104%,117%,89.2%,95.7%,98.2%

# Reference: the supplement of paper PMC4862054
